Our source for the binding values is paper PMC11633749, “Identification of the Wnt signal peptide that directs secretion on extracellular vesicles” (Science Advances, 2024).

Assay [1] addresses T1, endogenous Wnt7a (human (endogenous in RPTEC-hTERT1)) (UniProt O00755).
T1 sequence: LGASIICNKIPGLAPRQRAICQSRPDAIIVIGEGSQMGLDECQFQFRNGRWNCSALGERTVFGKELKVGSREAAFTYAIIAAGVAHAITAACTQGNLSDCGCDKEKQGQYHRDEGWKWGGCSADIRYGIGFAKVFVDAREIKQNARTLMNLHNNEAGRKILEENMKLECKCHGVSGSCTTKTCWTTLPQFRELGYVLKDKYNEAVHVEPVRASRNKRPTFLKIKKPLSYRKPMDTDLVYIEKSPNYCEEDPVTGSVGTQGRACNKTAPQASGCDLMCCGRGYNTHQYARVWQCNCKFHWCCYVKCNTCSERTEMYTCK
Description: proximity ligation; Duolink PLA in fixed RPTEC-hTERT1 cells, endogenous proteins; control without Wnt7a antibody.

Another assay concerns the target T2, Wnt7a_ΔEBP*GSGS (human) (UniProt O00755).
T2 sequence: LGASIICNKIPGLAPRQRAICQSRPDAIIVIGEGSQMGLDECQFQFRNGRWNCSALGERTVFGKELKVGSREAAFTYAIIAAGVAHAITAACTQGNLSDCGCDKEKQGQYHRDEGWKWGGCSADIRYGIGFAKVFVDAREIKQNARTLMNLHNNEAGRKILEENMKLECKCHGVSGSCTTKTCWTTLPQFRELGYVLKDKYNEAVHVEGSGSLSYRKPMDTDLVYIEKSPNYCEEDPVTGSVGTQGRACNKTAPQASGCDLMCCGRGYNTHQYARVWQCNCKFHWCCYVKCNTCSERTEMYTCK
Description: proximity ligation; Duolink PLA in fixed HEK293T cells transfected with Wnt7a-FL, Wnt7a_ΔEBP*GSGS or Wnt7a_ΔSP; control without Wnt7a antibody.

Another assay deals with T3, Wnt7a_ΔSP (human) (UniProt O00755).
T3 sequence: T1 sequence
Described as above.

The target of assay [2] is T4, full-length Wnt7a-HA (Wnt7a-FL) (human) (UniProt O00755).
T4 sequence: T1 sequence
Described as above.

Assay [3] addresses T4, full-length Wnt7a-HA (Wnt7a-FL) (human). Description: co-IP; lysate of HEK293T cells overexpressing Wnt7a-HA; immunoprecipitation with COPB2 or HA antibody on Dynabeads Protein G; 50 mM tris pH 7.5, 150 mM NaCl, 0.5% Triton X-100; immunoblot.

No constants are given. Whether binding was seen depends on the method and setting. In cells and extracts the contact can be indirect. Some binding calls cover weakened binding; strength is not graded here. For some assays here: Tags and fused reporters may be left off the sequences shown.

B1: COPA (coatomer protein), human (protein, UniProt P53621 1-1224)
chain: MLTKFETKSARVKGLSFHPKRPWILTSLHNGVIQLWDYRMCTLIDKFDEHDGPVRGIDFHKQQPLFVSGGDDYKIKVWNYKLRRCLFTLLGHLDYIRTTFFHHEYPWILSASDDQTIRVWNWQSRTCVCVLTGHNHYVMCAQFHPTEDLVVSASLDQTVRVWDISGLRKKNLSPGAVESDVRGITGVDLFGTTDAVVKHVLEGHDRGVNWAAFHPTMPLIVSGADDRQVKIWRMNESKAWEVDTCRGHYNNVSCAVFHPRQELILSNSEDKSIRVWDMSKRTGVQTFRRDHDRFWVLAAHPNLNLFAAGHDGGMIVFKLERERPAYAVHGNMLHYVKDRFLRQLDFNSSKDVAVMQLRSGSKFPVFNMSYNPAENAVLLCTRASNLENSTYDLYTIPKDADSQNPDAPEGKRSSGLTAVWVARNRFAVLDRMHSLLIKNLKNEITKKVQVPNCDEIFYAGTGNLLLRDADSITLFDVQQKRTLASVKISKVKYVIWSADMSHVALLAKHAIVICNRKLDALCNIHENIRVKSGAWDESGVFIYTTSNHIKYAVTTGDHGIIRTLDLPIYVTRVKGNNVYCLDRECRPRVLTIDPTEFKFKLALINRKYDEVLHMVRNAKLVGQSIIAYLQKKGYPEVALHFVKDEKTRFSLALECGNIEIALEAAKALDDKNCWEKLGEVALLQGNHQIVEMCYQRTKNFDKLSFLYLITGNLEKLRKMMKIAEIRKDMSGHYQNALYLGDVSERVRILKNCGQKSLAYLTAATHGLDEEAESLKETFDPEKETIPDIDPNAKLLQPPAPIMPLDTNWPLLTVSKGFFEGTIASKGKGGALAADIDIDTVGTEGWGEDAELQLDEDGFVEATEGLGDDALGKGQEEGGGWDVEEDLELPPELDISPGAAGGAEDGFFVPPTKGTSPTQIWCNNSQLPVDHILAGSFETAMRLLHDQVGVIQFGPYKQLFLQTYARGRTTYQALPCLPSMYGYPNRNWKDAGLKNGVPAVGLKLNDLIQRLQLCYQLTTVGKFEEAVEKFRSILLSVPLLVVDNKQEIAEAQQLITICREYIVGLSVETERKKLPKETLEQQKRICEMAAYFTHSNLQPVHMILVLRTALNLFFKLKNFKTAATFARRLLELGPKPEVAQQTRKILSACEKNPTDAYQLNYDMHNPFDICAASYRPIYRGKPVEKCPLSGACYSPEFKGQICRVTTVTEIGKDVIGLRISPLQFR
In the case of B1, the binding result in assay [1] is “binds”; with Wnt7a_ΔEBP*GSGS (human), “no binding”; in the assay with Wnt7a_ΔSP (human), “binds”; in assay [2] it was “binds”; in assay [3], “binds”.
